Counter-ions that a name gives are not always drawn. This is one part of the list. Most values lie at the level of the controls, where differences are scatter.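 Using flow cytometry, the assay measures the median γH2AX antibody signal in S-phase Reh cells (a human leukemia line). Each score is the number of standard deviations from the median difference of paired plate sets. Candidate hits scored above 2.5; compounds scoring below -2 lowered MK1775-induced damage.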

The test system of the experiment is Reh. The experiment can be described thus: Z' of S-phase gammaH2AX difference (drug + MK1775 minus drug alone) (Z-score); higher = stronger synergistic S-phase DNA damage with MK1775. The conditions noted are these: MK1775 concentration 400 nM; first compound 10 µM; 4 h.
As to `O=C1NC(=O)/C(=C\c2cccc(C(F)(F)F)c2)S1` + C=CCn1c(=O)c2cnc(Nc3ccc(N4CCN(C)CC4)cc3)nc2n1-c1cccc(C(C)(C)O)n1 [MK1775], the “Z' of S-phase gammaH2AX difference (Z-score)” value is inactive: 0.341.
On to `C[C@]12CCC(=O)C=C1CC[C@@H]1[C@@H]2C(=O)C[C@@]2(C)[C@H]1CC[C@]2(O)C(=O)CO` [Cortisone] + C=CCn1c(=O)c2cnc(Nc3ccc(N4CCN(C)CC4)cc3)nc2n1-c1cccc(C(C)(C)O)n1 [MK1775], for which the “Z' of S-phase gammaH2AX difference (Z-score)” value was inactive: -0.214.
In the case of `COCCCC/C(=N\OCCN)c1ccc(C(F)(F)F)cc1` [Fluvoxamine maleate] + C=CCn1c(=O)c2cnc(Nc3ccc(N4CCN(C)CC4)cc3)nc2n1-c1cccc(C(C)(C)O)n1 [MK1775], the “Z' of S-phase gammaH2AX difference (Z-score)” value was inactive: 0.585.
For `O=S(=O)(O)C1CCNCC1` [Piperidine-4-sulphonic acid] + C=CCn1c(=O)c2cnc(Nc3ccc(N4CCN(C)CC4)cc3)nc2n1-c1cccc(C(C)(C)O)n1 [MK1775], the “Z' of S-phase gammaH2AX difference (Z-score)” value was inactive: -0.689.
As for `COc1cc2nc(N3CCN(C(=O)OCc4ccccc4)[C@H](C(=O)NC(C)(C)C)C3)nc(N)c2cc1OC` + C=CCn1c(=O)c2cnc(Nc3ccc(N4CCN(C)CC4)cc3)nc2n1-c1cccc(C(C)(C)O)n1 [MK1775], the “Z' of S-phase gammaH2AX difference (Z-score)” value was inactive: 0.218.
On to `CNCCNS(=O)(=O)c1cccc2cnccc12` [H-8 dihydrochloride] + C=CCn1c(=O)c2cnc(Nc3ccc(N4CCN(C)CC4)cc3)nc2n1-c1cccc(C(C)(C)O)n1 [MK1775], for which the “Z' of S-phase gammaH2AX difference (Z-score)” value is inactive: -1.07.
The same measure for `CCNC(=O)[C@H]1O[C@@H](n2cnc3c(N)nc(NCCc4ccc(CCC(=O)O)cc4)nc32)[C@H](O)[C@@H]1O` + C=CCn1c(=O)c2cnc(Nc3ccc(N4CCN(C)CC4)cc3)nc2n1-c1cccc(C(C)(C)O)n1 [MK1775]: inactive: 0.311; for `C[C@](N)(Cc1ccc(O)cc1)C(=O)O` [L-alpha-Methyl-p-tyrosine] + C=CCn1c(=O)c2cnc(Nc3ccc(N4CCN(C)CC4)cc3)nc2n1-c1cccc(C(C)(C)O)n1 [MK1775]: inactive: 0.155; for `CCN(CC)CCCC(C)Nc1ccnc2cc(Cl)ccc12` (stereo not drawn) [Chloroquine diphosphate] + C=CCn1c(=O)c2cnc(Nc3ccc(N4CCN(C)CC4)cc3)nc2n1-c1cccc(C(C)(C)O)n1 [MK1775]: inactive: -0.00334.
Turning to `C[N+](C)(C)CCOP(=O)(O)OP(=O)([O-])OC[C@H]1O[C@@H](n2ccc(N)nc2=O)[C@H](O)[C@@H]1O` [Citicoline sodium] + C=CCn1c(=O)c2cnc(Nc3ccc(N4CCN(C)CC4)cc3)nc2n1-c1cccc(C(C)(C)O)n1 [MK1775], the “Z' of S-phase gammaH2AX difference (Z-score)” value was inactive: -0.0735.
Turning to `CN=c1nc(-c2ccccc2)n(-c2ccccc2)s1` + C=CCn1c(=O)c2cnc(Nc3ccc(N4CCN(C)CC4)cc3)nc2n1-c1cccc(C(C)(C)O)n1 [MK1775], the “Z' of S-phase gammaH2AX difference (Z-score)” value is inactive: 0.233.
Consider `CNc1ncnc2c1ncn2[C@@H]1O[C@H](CO)[C@@H](O)[C@H]1O` [N6-Methyladenosine] + C=CCn1c(=O)c2cnc(Nc3ccc(N4CCN(C)CC4)cc3)nc2n1-c1cccc(C(C)(C)O)n1 [MK1775], for which the “Z' of S-phase gammaH2AX difference (Z-score)” value was inactive: 0.781.
The same measure for `N[C@@H](CC(=O)O)C(=O)O` [L-Aspartic acid] + C=CCn1c(=O)c2cnc(Nc3ccc(N4CCN(C)CC4)cc3)nc2n1-c1cccc(C(C)(C)O)n1 [MK1775]: inactive: 0.471.
Turning to `c1ccc2c(c1)CCCC2C1=NCCN1` (stereo not drawn) [Tetrahydrozoline hydrochloride] + C=CCn1c(=O)c2cnc(Nc3ccc(N4CCN(C)CC4)cc3)nc2n1-c1cccc(C(C)(C)O)n1 [MK1775], the “Z' of S-phase gammaH2AX difference (Z-score)” value was inactive: 0.483.
Regarding `CC1(C)CCC=[N+]1[O-]` [5,5-Dimethyl-1-pyrroline-N-oxide] + C=CCn1c(=O)c2cnc(Nc3ccc(N4CCN(C)CC4)cc3)nc2n1-c1cccc(C(C)(C)O)n1 [MK1775], the “Z' of S-phase gammaH2AX difference (Z-score)” value is inactive: 0.503.
As for `CC1(C)CCC(NC(=O)[C@@H](N)CCC(=O)O)CC1` + C=CCn1c(=O)c2cnc(Nc3ccc(N4CCN(C)CC4)cc3)nc2n1-c1cccc(C(C)(C)O)n1 [MK1775], the “Z' of S-phase gammaH2AX difference (Z-score)” value was inactive: -0.471.
For the molecule `O=C(O)C1CCNCC1` [Isonipecotic acid] + C=CCn1c(=O)c2cnc(Nc3ccc(N4CCN(C)CC4)cc3)nc2n1-c1cccc(C(C)(C)O)n1 [MK1775], the “Z' of S-phase gammaH2AX difference (Z-score)” value was inactive: 0.085.
Consider `O=C1NC(=O)C(c2ccccc2[N+](=O)[O-])=C1Nc1ccc(O)c(Cl)c1` + C=CCn1c(=O)c2cnc(Nc3ccc(N4CCN(C)CC4)cc3)nc2n1-c1cccc(C(C)(C)O)n1 [MK1775], for which the “Z' of S-phase gammaH2AX difference (Z-score)” value is inactive: -0.984.
As for `Oc1ccc(C2CNCCc3c2cc(O)c(O)c3Cl)cc1` (stereo not drawn) [Fenoldopam bromide] + C=CCn1c(=O)c2cnc(Nc3ccc(N4CCN(C)CC4)cc3)nc2n1-c1cccc(C(C)(C)O)n1 [MK1775], the “Z' of S-phase gammaH2AX difference (Z-score)” value was inactive: -0.508.
Turning to `COc1ccc(CCN(C)CCCOc2ccc(S(=O)(=O)c3c(C(C)C)n(C)c4ccccc34)cc2)cc1OC` + C=CCn1c(=O)c2cnc(Nc3ccc(N4CCN(C)CC4)cc3)nc2n1-c1cccc(C(C)(C)O)n1 [MK1775], the “Z' of S-phase gammaH2AX difference (Z-score)” value was inactive: -0.472.
In the case of `Cc1ccc(-c2csc3ncnc(SCCC(=O)O)c23)cc1` + C=CCn1c(=O)c2cnc(Nc3ccc(N4CCN(C)CC4)cc3)nc2n1-c1cccc(C(C)(C)O)n1 [MK1775], the “Z' of S-phase gammaH2AX difference (Z-score)” value was inactive: 0.283.
As for `NCCc1c[nH]cn1` [Histamine dihydrochloride] + C=CCn1c(=O)c2cnc(Nc3ccc(N4CCN(C)CC4)cc3)nc2n1-c1cccc(C(C)(C)O)n1 [MK1775], the “Z' of S-phase gammaH2AX difference (Z-score)” value was inactive: -0.93.
The same measure for `CC(=O)Nc1cccc(-n2c(=O)n(C3CC3)c(=O)c3c(Nc4ccc(I)cc4F)n(C)c(=O)c(C)c32)c1` + C=CCn1c(=O)c2cnc(Nc3ccc(N4CCN(C)CC4)cc3)nc2n1-c1cccc(C(C)(C)O)n1 [MK1775]: inactive: -0.376; for `CC[N+](C)(C)c1cccc(O)c1` [Edrophonium chloride] + C=CCn1c(=O)c2cnc(Nc3ccc(N4CCN(C)CC4)cc3)nc2n1-c1cccc(C(C)(C)O)n1 [MK1775]: inactive: 0.751.
Turning to `OCCN1CCN(CC/C=C2/c3ccccc3Sc3ccc(C(F)(F)F)cc32)CC1` [cis-(Z)-Flupenthixol dihydrochloride] + C=CCn1c(=O)c2cnc(Nc3ccc(N4CCN(C)CC4)cc3)nc2n1-c1cccc(C(C)(C)O)n1 [MK1775], the “Z' of S-phase gammaH2AX difference (Z-score)” value was inactive: -0.143.
With `O=C(/C=C/C#Cc1cccc(NS(=O)(=O)c2ccccc2)c1)NO` [Oxamflatin] + C=CCn1c(=O)c2cnc(Nc3ccc(N4CCN(C)CC4)cc3)nc2n1-c1cccc(C(C)(C)O)n1 [MK1775], the “Z' of S-phase gammaH2AX difference (Z-score)” value is inactive: -0.178.
For the molecule `Cc1cn[nH]c1` [4-Methylpyrazole hydrochloride] + C=CCn1c(=O)c2cnc(Nc3ccc(N4CCN(C)CC4)cc3)nc2n1-c1cccc(C(C)(C)O)n1 [MK1775], the “Z' of S-phase gammaH2AX difference (Z-score)” value was inactive: 1.01.
As for `COC(=O)Nc1nc2cc(C(=O)c3cccs3)ccc2[nH]1` [Nocodazole] + C=CCn1c(=O)c2cnc(Nc3ccc(N4CCN(C)CC4)cc3)nc2n1-c1cccc(C(C)(C)O)n1 [MK1775], the “Z' of S-phase gammaH2AX difference (Z-score)” value is inactive: 0.45.
For `O=C(O)CCCCCCCC(=O)O` [Azelaic acid] + C=CCn1c(=O)c2cnc(Nc3ccc(N4CCN(C)CC4)cc3)nc2n1-c1cccc(C(C)(C)O)n1 [MK1775], the “Z' of S-phase gammaH2AX difference (Z-score)” value is inactive: -0.0535.
With `CC(=Cc1ccc(C(=O)O)cc1)c1ccc2c(c1)C(C)(C)CCC2(C)C` + C=CCn1c(=O)c2cnc(Nc3ccc(N4CCN(C)CC4)cc3)nc2n1-c1cccc(C(C)(C)O)n1 [MK1775], the “Z' of S-phase gammaH2AX difference (Z-score)” value is inactive: -0.498.
The value for `C=CC(N)CCC(=O)O` (stereo not drawn) [(?)-gamma-Vinyl GABA] + C=CCn1c(=O)c2cnc(Nc3ccc(N4CCN(C)CC4)cc3)nc2n1-c1cccc(C(C)(C)O)n1 [MK1775] was inactive: -1.37; that for `CC(C)(C)c1cnc(CSc2cnc(NC(=O)C3CCNCC3)s2)o1` + C=CCn1c(=O)c2cnc(Nc3ccc(N4CCN(C)CC4)cc3)nc2n1-c1cccc(C(C)(C)O)n1 [MK1775] was inactive: -1.28; that for `CC(=O)S[C@@H]1CC2=CC(=O)CC[C@]2(C)[C@H]2CC[C@@]3(C)[C@@H](CC[C@@]34CCC(=O)O4)[C@H]12` [Spironolactone] + C=CCn1c(=O)c2cnc(Nc3ccc(N4CCN(C)CC4)cc3)nc2n1-c1cccc(C(C)(C)O)n1 [MK1775] was inactive: -0.0466.
The same measure for `C#Cc1cccc(Nc2ncnc3cc(OC)c(OCCCCCCC(=O)NO)cc23)c1` + C=CCn1c(=O)c2cnc(Nc3ccc(N4CCN(C)CC4)cc3)nc2n1-c1cccc(C(C)(C)O)n1 [MK1775]: inactive: 0.119; for `NC1(C(=O)O)CCCCC1` [1-Amino-1-cyclohexanecarboxylic acid hydrochloride] + C=CCn1c(=O)c2cnc(Nc3ccc(N4CCN(C)CC4)cc3)nc2n1-c1cccc(C(C)(C)O)n1 [MK1775]: inactive: 0.0434; for `NNCCc1ccccc1` [Phenelzine sulfate] + C=CCn1c(=O)c2cnc(Nc3ccc(N4CCN(C)CC4)cc3)nc2n1-c1cccc(C(C)(C)O)n1 [MK1775]: inactive: 0.252.
With `CC(C)(C=O)Cc1cc(C(C)(C)C)c(O)c(C(C)(C)C)c1` + C=CCn1c(=O)c2cnc(Nc3ccc(N4CCN(C)CC4)cc3)nc2n1-c1cccc(C(C)(C)O)n1 [MK1775], the “Z' of S-phase gammaH2AX difference (Z-score)” value is inactive: 0.0668.
For `CN1CCN(CC/C=C2/c3ccccc3Sc3ccc(S(=O)(=O)N(C)C)cc32)CC1` [Thiothixene hydrochloride] + C=CCn1c(=O)c2cnc(Nc3ccc(N4CCN(C)CC4)cc3)nc2n1-c1cccc(C(C)(C)O)n1 [MK1775], the “Z' of S-phase gammaH2AX difference (Z-score)” value is inactive: 0.382.

(Values after the supplement of paper PMC5355238.)
